Reference: patent US4771124A, “Parathyroid hormone antagonists with simplified synthetic methodology” (Merck & Co., Inc., priority 1987, dated 1988)
At least one peptide structure holds a part that was inferred or is arguable (an end, a ring closure or a residue). Square brackets hold non-standard residues; d marks the D form. Peptide text beside a SMILES is read from it. Nle = CCCC[C@H](N)C(=O)O

Tests used:
[1] = target: T1, parathyroid hormone cell surface receptor (Homo sapiens, UniProt Q03431); test: agonist activity (stimulation of second messenger molecules); settings: no method or data given
T1 sequence (Q03431 27-593): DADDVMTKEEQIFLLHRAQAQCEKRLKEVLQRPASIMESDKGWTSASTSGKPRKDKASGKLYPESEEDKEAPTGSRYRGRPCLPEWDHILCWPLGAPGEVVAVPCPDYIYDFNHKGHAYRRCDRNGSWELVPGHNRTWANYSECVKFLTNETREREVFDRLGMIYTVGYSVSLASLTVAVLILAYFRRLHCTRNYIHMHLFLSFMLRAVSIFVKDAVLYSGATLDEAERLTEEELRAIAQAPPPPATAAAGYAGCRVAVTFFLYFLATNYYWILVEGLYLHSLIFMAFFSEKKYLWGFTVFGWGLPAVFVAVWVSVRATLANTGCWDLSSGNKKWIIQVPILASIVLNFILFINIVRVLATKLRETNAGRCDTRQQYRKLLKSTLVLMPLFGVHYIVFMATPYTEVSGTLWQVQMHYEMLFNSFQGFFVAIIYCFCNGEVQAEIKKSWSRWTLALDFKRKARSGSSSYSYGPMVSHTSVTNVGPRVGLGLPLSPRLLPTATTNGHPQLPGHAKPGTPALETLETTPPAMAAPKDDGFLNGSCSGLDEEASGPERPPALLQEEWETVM

PTH = test: inhibition of PTH in vivo; settings: no method or data given

CCCC[C@H](NC(=O)[C@H](CO)NC(=O)[C@H](CC(N)=O)NC(=O)[C@H](CC(C)C)NC(=O)[C@H](Cc1c[nH]cn1)NC(=O)[C@H](CCCCN)NC(=O)CNC(=O)[C@H](CC(C)C)NC(=O)[C@H](CC(N)=O)NC(=O)[C@H](Cc1c[nH]cn1)NC(=O)[C@H](CCCC)NC(=O)[C@@H](N)CC(C)C)C(=O)N[C@@H](CCC(=O)O)C(=O)N[C@@H](CCCNC(=N)N)C(=O)N[C@H](C(=O)N[C@@H](CCC(=O)O)C(=O)N[C@@H](Cc1ccccc1)C(=O)N[C@@H](CC(C)C)C(=O)N[C@@H](CCCNC(=N)N)C(=O)N[C@@H](CCCCN)C(=O)N[C@@H](CCCCN)C(=O)N[C@@H](CC(C)C)C(=O)N[C@@H](CCC(N)=O)C(=O)N[C@@H](CC(=O)O)C(=O)N[C@H](C(=O)N[C@@H](Cc1c[nH]cn1)C(=O)N[C@@H](CC(N)=O)C(=O)N[C@@H](Cc1ccc(O)cc1)C(N)=O)C(C)C)C(C)C [[L-Phe^23, Nle^8,18, Tyr^34]hPTH(7-34)NH2] (H-L[Nle]HNLGKHLNS[Nle]ERVEFLRKKLQDVHNY-NH2)
agonist activity [1]: does not act as an agonist
inhibition of PTH in vivo (PTH): inhibits PTH in vivo
